Assay results published in the supplement of paper PMC9233669.
Variants at the background level are over-represented here.

Assays:
biotinyl-Phe-oxazolone = assay: self-aminoacylation, catalytic enhancement (BFO) (fold over background); higher = more active; k-Seq, kA / k0A0; sequences stand for … in GGGAAUGGAUCCACAUCUACGAAUUC…UUCACUGCAGACUUGACGAAGCUG
In short: (§1)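 Mutagenized RNA pools (0.43 μM; 21-nt variable region) were treated with 2–1250 μM of each biotinyl-aminoacyl-oxazolone. Conditions were 50 μL HEPES/NaCl/KCl/MgCl2/CaCl2 buffer, 5% acetonitrile, pH 6.9–7.0, room temperature, 90 minutes. Catalytic enhancement, the median kA relative to the uncatalyzed rate, was derived from streptavidin capture, qPCR and Illumina sequencing.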

biotinyl-Trp-oxazolone = assay: self-aminoacylation, catalytic enhancement (BWO) (fold over background); higher = more active; k-Seq, kA / k0A0; sequences stand for … in GGGAAUGGAUCCACAUCUACGAAUUC…UUCACUGCAGACUUGACGAAGCUG
In short: as §1

biotinyl-Met-oxazolone = assay: self-aminoacylation, catalytic enhancement (BMO) (fold over background); higher = more active; k-Seq, kA / k0A0; sequences stand for … in GGGAAUGGAUCCACAUCUACGAAUUC…UUCACUGCAGACUUGACGAAGCUG
In short: as §1

biotinyl-Leu-oxazolone = assay: self-aminoacylation, catalytic enhancement (BLO) (fold over background); higher = more active; k-Seq, kA / k0A0; sequences stand for … in GGGAAUGGAUCCACAUCUACGAAUUC…UUCACUGCAGACUUGACGAAGCUG
In short: as §1

biotinyl-Val-oxazolone = assay: self-aminoacylation, catalytic enhancement (BVO) (fold over background); higher = more active; k-Seq, kA / k0A0; sequences stand for … in GGGAAUGGAUCCACAUCUACGAAUUC…UUCACUGCAGACUUGACGAAGCUG
In short: as §1

biotinyl-Ile-oxazolone = assay: self-aminoacylation, catalytic enhancement (BIO) (fold over background); higher = more active; k-Seq, kA / k0A0; sequences stand for … in GGGAAUGGAUCCACAUCUACGAAUUC…UUCACUGCAGACUUGACGAAGCUG
In short: as §1

| Sequence | self-aminoacylation (biotinyl-Phe-oxazolone) | self-aminoacylation (biotinyl-Trp-oxazolone) | self-aminoacylation (biotinyl-Met-oxazolone) | self-aminoacylation (biotinyl-Leu-oxazolone) | self-aminoacylation (biotinyl-Val-oxazolone) | self-aminoacylation (biotinyl-Ile-oxazolone) |
| --- | --- | --- | --- | --- | --- | --- |
| AUUACCCUGCUGAUCGAGUGA [Fam2.1 aminoacylation ribozyme variant] | 10.4 | 2.77 | 2.68 | 2.87 | 1.67 | 1.93 |
| AUUACCCUGGACAUCGAGUAA [Fam2.1 aminoacylation ribozyme variant] | 0.788 | 0.875 | 0.95 | 1.08 | 1.03 | 1.15 |
| AUUACCCUGGACAUCGAGUUA [Fam2.1 aminoacylation ribozyme variant] | 0.728 | 0.639 | 0.682 | 0.772 | 0.75 | 0.805 |
| AUUACCCUGGGCAUCGAGUAA [Fam2.1 aminoacylation ribozyme variant] | 0.782 | 0.725 | 1.39 | 1.11 | 1.13 | 1.1 |
| AUUACCCUGGGCAUCGAGUGG [Fam2.1 aminoacylation ribozyme variant] | 1.08 | 1.61 | 0.871 | 1.28 | 0.826 | 0.954 |
| AUUACCCUGGUAAUCGAGGGA [Fam2.1 aminoacylation ribozyme variant] | 0.55 | 0.832 | 0.924 | 0.931 | 1.04 | 1.1 |
| AUUACCCUGGUCAACGAUUGA [Fam2.1 aminoacylation ribozyme variant] | 0.776 | 0.43 | 0.831 | 0.697 | 0.799 | 0.659 |
| AUUACCCUGGUCACCGACUGA [Fam2.1 aminoacylation ribozyme variant] | 0.426 | 0.519 | 0.651 | 1.13 | 1.05 | 0.913 |
| AUUACCCUGGUCACCGAGUCA [Fam2.1 aminoacylation ribozyme variant] | 0.799 | 1.84 | 1.45 | 1.75 | 1.49 | 1.43 |
| AUUACCCUGGUCAGCGAGUCA [Fam2.1 aminoacylation ribozyme variant] | 0.324 | 0.33 | 0.674 | 0.732 | 0.955 | 0.893 |
| AUUACCCUGGUCAGUGAGUGA [Fam2.1 aminoacylation ribozyme variant] | 1.24 | 0.587 | 0.869 | 1.01 | 0.883 | 1.11 |
| AUUACCCUGGUCAUAGAGUGC [Fam2.1 aminoacylation ribozyme variant] | 0.744 | 0.631 | 0.989 | 0.969 | 1.09 | 0.877 |
| AUUACCCUGGUCAUCAAGAGA [Fam2.1 aminoacylation ribozyme variant] | 0.91 | 0.478 | 0.779 | 0.659 | 0.653 | 0.761 |
| AUUACCCUGGUCAUCAAGUAA [Fam2.1 aminoacylation ribozyme variant] | 0.488 | 0.629 | 0.659 | 0.589 | 0.585 | 0.742 |
| AUUACCCUGGUCAUCAAGUCA [Fam2.1 aminoacylation ribozyme variant] | 0.534 | 0.535 | 0.619 | 0.687 | 0.843 | 0.781 |
| AUUACCCUGGUCAUCGAACGA [Fam2.1 aminoacylation ribozyme variant] | 0.752 | 0.867 | 0.812 | 0.662 | 0.748 | 0.959 |
| AUUACCCUGGUCAUCGAAUGG [Fam2.1 aminoacylation ribozyme variant] | 0.745 | 0.541 | 0.774 | 0.689 | 0.828 | 0.74 |
| AUUACCCUGGUCAUCGAAUGU [Fam2.1 aminoacylation ribozyme variant] | 0.64 | 0.653 | 0.925 | 1.06 | 0.788 | 0.894 |
| AUUACCCUGGUCAUCGACGGA [Fam2.1 aminoacylation ribozyme variant] | 1.33 | 1.76 | 1.52 | 1.39 | 0.964 | 1.07 |
| AUUACCCUGGUCAUCGACUGA [Fam2.1 aminoacylation ribozyme variant] | 0.61 | 0.577 | 0.756 | 0.767 | 0.901 | 0.838 |
| AUUACCCUGGUCAUCGAUCGA [Fam2.1 aminoacylation ribozyme variant] | 0.529 | 0.857 | 0.842 | 0.95 | 0.79 | 1.25 |
| AUUACCCUGGUCAUUUAGUGA [Fam2.1 aminoacylation ribozyme variant] | 70 | 14.4 | 11.7 | 11.1 | 5.82 | 5.57 |
| AUUACCCUGGUCCUCGAGUAA [Fam2.1 aminoacylation ribozyme variant] | 0.542 | 1.64 | 0.966 | 1.33 | 1.36 | 1.35 |
| AUUACCCUGGUGAUCGAGUUA [Fam2.1 aminoacylation ribozyme variant] | 0.818 | 0.848 | 1.1 | 0.838 | 0.99 | 0.887 |
| AUUACCCUGGUGGUCGAGUGA [Fam2.1 aminoacylation ribozyme variant] | 12.8 | 1.83 | 2.28 | 1.95 | 1.61 | 1.47 |
| AUUACCCUGGUUAUCGGGUGA [Fam2.1 aminoacylation ribozyme variant] | 94.3 | 14.8 | 12.8 | 13.6 | 6.66 | 5.12 |

| Sequence | self-aminoacylation (biotinyl-Phe-oxazolone) | self-aminoacylation (biotinyl-Trp-oxazolone) | self-aminoacylation (biotinyl-Met-oxazolone) | self-aminoacylation (biotinyl-Leu-oxazolone) | self-aminoacylation (biotinyl-Val-oxazolone) | self-aminoacylation (biotinyl-Ile-oxazolone) |
| --- | --- | --- | --- | --- | --- | --- |
| AUUACCCUGUUCAUCCAGUGA [Fam2.1 aminoacylation ribozyme variant] | 23 | 8.43 | 5.95 | 5.85 | 3.52 | 3.76 |
| AUUACCCUGUUCAUCGAGUCA [Fam2.1 aminoacylation ribozyme variant] | 1.02 | 0.671 | 0.829 | 0.956 | 1.08 | 1.17 |
| AUUACCCUGUUCAUCGAUUGA [Fam2.1 aminoacylation ribozyme variant] | 1.02 | 1.03 | 0.992 | 1.01 | 1.2 | 1.27 |
| AUUACCCUUGUCAUCGAGUGC [Fam2.1 aminoacylation ribozyme variant] | 1.11 | 0.814 | 0.925 | 1.11 | 1.07 | 1.09 |
| AUUACCGUGGUCAUCGAUUGA [Fam2.1 aminoacylation ribozyme variant] | 0.63 | 0.695 | 1.2 | 1.17 | 1.08 | 0.997 |
| AUUACCUUGGUCAUCGAGGGA [Fam2.1 aminoacylation ribozyme variant] | 0.715 | 1.78 | 1.68 | 1.91 | 1.48 | 1.37 |
| AUUACCUUGGUCAUCGAGUAA [Fam2.1 aminoacylation ribozyme variant] | 1.22 | 1 | 1.23 | 1.3 | 1.23 | 1.25 |
| AUUACCUUGGUCAUCGUGUGA [Fam2.1 aminoacylation ribozyme variant] | 16.2 | 3.57 | 2.55 | 2.71 | 1.57 | 1.53 |
| AUUACGCUGGUCCUCGAGUGA [Fam2.1 aminoacylation ribozyme variant] | 44.8 | 6.54 | 6.22 | 6.05 | 4.14 | 4.15 |
| AUUACUCUGGUCUUCGAGUGA [Fam2.1 aminoacylation ribozyme variant] | 21.2 | 7.1 | 5.11 | 5.04 | 2.85 | 3.13 |
| AUUAGCCUCGUCAUCGAGUGA [Fam2.1 aminoacylation ribozyme variant] | 2.19 | 1.3 | 1.38 | 1.61 | 1.32 | 1.53 |
| AUUAGCCUGGUCAUCGAGUGA [Fam2.1 aminoacylation ribozyme variant] | 21.7 | 9.2 | 7.22 | 7.65 | 4.55 | 4.61 |
| AUUAUCCUGGCCAUCGAGUGA [Fam2.1 aminoacylation ribozyme variant] | 13.8 | 2.77 | 2.99 | 2.98 | 1.69 | 1.92 |
| AUUAUCCUGGUCGUCGAGUGA [Fam2.1 aminoacylation ribozyme variant] | 0.709 | 1.03 | 1.07 | 1.01 | 0.911 | 1.01 |
| AUUCAACUCGGUCAUCGGGUG [Fam2.2 aminoacylation ribozyme variant] | 67.4 | 7.4 | 6.48 | 9.77 | 3.84 | 4.15 |
| AUUCACCAAGGUCGUCGGGUG [Fam2.2 aminoacylation ribozyme variant] | 12.9 | 2.29 | 2.2 | 3.05 | 2.58 | 2.09 |
| AUUCACCCAGGUCAUCGAGUG [Fam2.2 aminoacylation ribozyme variant] | 1 | 1.39 | 1.45 | 1.43 | 1.39 | 1.27 |
| AUUCACCCAUGUCAUCGGGUG [Fam2.2 aminoacylation ribozyme variant] | 46.4 | 5.22 | 6.58 | 7.33 | 3.15 | 3.72 |
| AUUCACCGAGAUCAUCGGGUG [Fam2.2 aminoacylation ribozyme variant] | 49.8 | 7.09 | 6.77 | 8.53 | 4.27 | 3.88 |
| AUUCACCGAGGUCAUCUGGUG [Fam2.2 aminoacylation ribozyme variant] | 34.6 | 3.61 | 4.31 | 5.72 | 2.69 | 2.39 |
| AUUCACCUAAGUCACCGGGUG [Fam2.2 aminoacylation ribozyme variant] | 53.8 | 5.67 | 7.03 | 8.36 | 4.88 | 4.72 |
| AUUCACCUACGUCAUCGGGUC [Fam2.2 aminoacylation ribozyme variant] | 4.31 | 0.963 | 1.25 | 1.36 | 1.21 | 1.17 |
| AUUCACCUAGAUCAUCGGAUG [Fam2.2 aminoacylation ribozyme variant] | 0.602 | 0.536 | 0.708 | 0.709 | 0.851 | 0.775 |
| AUUCACCUAGCUCCUCGGGUG [Fam2.2 aminoacylation ribozyme variant] | 5.19 | 1.35 | 1.52 | 2.24 | 1.27 | 1.13 |
| AUUCACCUAGGUCAACGGGAG [Fam2.2 aminoacylation ribozyme variant] | 0.42 | 0.522 | 0.711 | 0.826 | 0.879 | 0.89 |
